These are yes or no findings as the source states them, for the method shown. In cells and extracts the contact can be indirect. Some binding calls cover weakened binding; strength is not graded here. For some of these results: Tags and fused reporters may be left off the sequences shown.
What was measured:
[1] = biological target: T1, wild-type KIF15 (KIF15-WT), Flag-tagged (UniProt Q9NS87); experiment: co-IP; PC cells transfected with Flag-KIF15 wild type or mutants; anti-Flag (legends of Fig. 4F, 5E, 6G: 'Flag or HA') immunoprecipitation, western blot; with or without overexpressed PI3K-C2α or SIRT1
T1 sequence: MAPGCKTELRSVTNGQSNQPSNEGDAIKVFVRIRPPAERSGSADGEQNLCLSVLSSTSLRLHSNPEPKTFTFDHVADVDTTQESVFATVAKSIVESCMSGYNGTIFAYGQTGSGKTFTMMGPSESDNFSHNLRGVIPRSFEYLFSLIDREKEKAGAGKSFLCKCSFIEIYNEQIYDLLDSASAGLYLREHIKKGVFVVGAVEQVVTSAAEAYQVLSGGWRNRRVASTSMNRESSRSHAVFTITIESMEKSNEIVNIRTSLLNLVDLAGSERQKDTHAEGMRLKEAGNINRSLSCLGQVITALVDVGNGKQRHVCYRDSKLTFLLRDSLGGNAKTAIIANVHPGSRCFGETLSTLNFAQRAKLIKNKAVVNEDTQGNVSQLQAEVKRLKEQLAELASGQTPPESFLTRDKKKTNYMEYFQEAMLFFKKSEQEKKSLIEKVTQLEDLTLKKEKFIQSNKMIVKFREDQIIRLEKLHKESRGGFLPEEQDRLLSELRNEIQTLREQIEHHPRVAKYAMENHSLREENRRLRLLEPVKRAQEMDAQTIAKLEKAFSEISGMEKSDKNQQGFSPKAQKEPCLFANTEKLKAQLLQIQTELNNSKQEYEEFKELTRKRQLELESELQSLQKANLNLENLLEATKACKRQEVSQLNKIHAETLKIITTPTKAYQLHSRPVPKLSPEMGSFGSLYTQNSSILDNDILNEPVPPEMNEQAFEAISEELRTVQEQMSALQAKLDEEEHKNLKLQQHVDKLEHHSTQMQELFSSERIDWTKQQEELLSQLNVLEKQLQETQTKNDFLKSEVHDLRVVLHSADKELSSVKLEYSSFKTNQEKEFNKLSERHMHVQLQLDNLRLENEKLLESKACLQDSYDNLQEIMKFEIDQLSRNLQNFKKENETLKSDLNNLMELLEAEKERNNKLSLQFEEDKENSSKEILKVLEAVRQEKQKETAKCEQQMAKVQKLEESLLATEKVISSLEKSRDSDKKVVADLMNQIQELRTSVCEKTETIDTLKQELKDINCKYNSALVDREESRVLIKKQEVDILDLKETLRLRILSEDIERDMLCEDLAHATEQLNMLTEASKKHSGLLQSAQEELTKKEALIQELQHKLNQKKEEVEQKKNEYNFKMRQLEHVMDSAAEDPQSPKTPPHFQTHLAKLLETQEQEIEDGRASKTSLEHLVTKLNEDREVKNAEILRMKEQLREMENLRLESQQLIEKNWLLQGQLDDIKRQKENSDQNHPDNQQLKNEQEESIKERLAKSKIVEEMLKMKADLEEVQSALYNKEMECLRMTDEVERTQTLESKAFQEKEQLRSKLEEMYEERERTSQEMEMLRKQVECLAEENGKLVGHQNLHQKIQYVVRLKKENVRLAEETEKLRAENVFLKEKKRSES

The chains behind the UniProt entries cited, without tags or fusion partners. Where a name states a change or a piece, a line headed by the entry shows the natural chain unless it says otherwise.
UniProt O00443: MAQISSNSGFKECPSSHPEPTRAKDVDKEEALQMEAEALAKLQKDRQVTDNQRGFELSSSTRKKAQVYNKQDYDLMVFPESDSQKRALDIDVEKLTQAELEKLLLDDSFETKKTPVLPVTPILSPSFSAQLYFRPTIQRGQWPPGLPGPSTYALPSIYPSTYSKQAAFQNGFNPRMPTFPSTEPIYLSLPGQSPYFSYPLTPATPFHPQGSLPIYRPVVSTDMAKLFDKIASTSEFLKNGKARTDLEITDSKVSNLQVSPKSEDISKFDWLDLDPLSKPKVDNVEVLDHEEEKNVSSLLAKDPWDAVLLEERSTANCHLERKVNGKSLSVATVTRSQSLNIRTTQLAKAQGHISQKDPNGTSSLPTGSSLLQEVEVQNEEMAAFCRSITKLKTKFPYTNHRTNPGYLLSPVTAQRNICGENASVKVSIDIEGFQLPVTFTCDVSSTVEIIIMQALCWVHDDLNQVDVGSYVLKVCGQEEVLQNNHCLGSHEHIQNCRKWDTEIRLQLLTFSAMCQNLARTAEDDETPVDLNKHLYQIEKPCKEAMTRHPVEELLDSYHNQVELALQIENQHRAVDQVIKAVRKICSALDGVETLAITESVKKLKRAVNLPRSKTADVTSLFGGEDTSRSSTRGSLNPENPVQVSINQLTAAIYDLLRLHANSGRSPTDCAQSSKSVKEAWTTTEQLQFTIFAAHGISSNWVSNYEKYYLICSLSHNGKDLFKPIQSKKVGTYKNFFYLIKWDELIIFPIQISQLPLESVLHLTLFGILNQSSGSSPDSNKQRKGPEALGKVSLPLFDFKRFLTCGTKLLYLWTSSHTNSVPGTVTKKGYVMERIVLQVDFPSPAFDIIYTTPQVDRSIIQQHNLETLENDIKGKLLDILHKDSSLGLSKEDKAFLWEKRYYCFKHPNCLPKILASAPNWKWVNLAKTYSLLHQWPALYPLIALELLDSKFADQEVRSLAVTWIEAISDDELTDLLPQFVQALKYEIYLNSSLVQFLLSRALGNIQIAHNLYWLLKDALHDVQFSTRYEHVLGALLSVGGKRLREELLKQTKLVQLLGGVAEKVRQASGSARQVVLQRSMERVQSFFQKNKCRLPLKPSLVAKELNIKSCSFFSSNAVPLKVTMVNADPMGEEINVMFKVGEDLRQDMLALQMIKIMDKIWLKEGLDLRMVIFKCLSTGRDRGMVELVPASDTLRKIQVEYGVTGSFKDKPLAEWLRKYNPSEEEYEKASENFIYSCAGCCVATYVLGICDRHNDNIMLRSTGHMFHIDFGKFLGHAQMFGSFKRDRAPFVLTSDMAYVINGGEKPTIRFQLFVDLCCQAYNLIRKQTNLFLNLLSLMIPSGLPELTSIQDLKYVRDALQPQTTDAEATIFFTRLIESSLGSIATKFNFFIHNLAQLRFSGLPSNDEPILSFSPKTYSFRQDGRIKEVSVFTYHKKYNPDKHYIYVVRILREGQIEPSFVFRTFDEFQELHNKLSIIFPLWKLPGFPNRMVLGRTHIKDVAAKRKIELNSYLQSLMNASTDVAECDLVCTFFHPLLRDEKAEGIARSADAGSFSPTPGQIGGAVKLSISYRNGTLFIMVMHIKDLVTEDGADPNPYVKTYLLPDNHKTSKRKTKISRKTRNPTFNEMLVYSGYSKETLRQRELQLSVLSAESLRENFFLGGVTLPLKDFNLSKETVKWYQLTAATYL
UniProt P62491: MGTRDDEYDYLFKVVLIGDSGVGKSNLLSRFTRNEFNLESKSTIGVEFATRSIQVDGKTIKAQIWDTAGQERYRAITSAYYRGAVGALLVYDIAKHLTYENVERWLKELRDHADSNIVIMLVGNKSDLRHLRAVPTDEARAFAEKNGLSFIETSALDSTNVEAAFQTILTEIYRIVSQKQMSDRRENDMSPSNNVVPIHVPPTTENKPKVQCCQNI
UniProt P05556: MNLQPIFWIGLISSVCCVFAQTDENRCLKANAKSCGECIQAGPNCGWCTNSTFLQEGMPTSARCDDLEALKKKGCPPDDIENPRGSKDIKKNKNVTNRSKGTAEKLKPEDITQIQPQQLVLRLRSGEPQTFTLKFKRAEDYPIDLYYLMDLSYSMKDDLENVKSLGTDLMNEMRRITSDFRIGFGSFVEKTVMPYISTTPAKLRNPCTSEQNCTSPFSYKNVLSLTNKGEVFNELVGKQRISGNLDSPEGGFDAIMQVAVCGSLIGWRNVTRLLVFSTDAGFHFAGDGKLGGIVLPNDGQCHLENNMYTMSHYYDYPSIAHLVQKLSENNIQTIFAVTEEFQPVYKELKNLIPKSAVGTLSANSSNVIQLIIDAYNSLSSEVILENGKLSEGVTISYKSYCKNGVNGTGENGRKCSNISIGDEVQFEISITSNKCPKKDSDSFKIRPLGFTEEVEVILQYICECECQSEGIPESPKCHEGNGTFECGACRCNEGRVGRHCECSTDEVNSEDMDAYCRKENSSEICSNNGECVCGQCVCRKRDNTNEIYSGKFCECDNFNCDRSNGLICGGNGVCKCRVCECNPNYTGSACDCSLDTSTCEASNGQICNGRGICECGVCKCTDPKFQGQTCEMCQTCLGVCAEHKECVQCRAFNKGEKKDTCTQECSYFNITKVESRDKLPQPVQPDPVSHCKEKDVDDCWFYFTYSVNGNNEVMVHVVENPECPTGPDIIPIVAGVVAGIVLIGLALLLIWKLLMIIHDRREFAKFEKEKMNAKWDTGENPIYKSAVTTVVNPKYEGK

[2] = biological target: T2, kinesin family 15 (KIF15) (human (endogenous in PANC-1 / MIA PaCa-2)) (UniProt Q9NS87); experiment: co-IP; PC cell lysates with primary antibody or IgG overnight at 4 °C, affinity agarose beads 4 h, five washes; western blot
T2 sequence: T1 sequence

Row | binding [1] | binding [2] | Substance
1 | binds | binds | PI3K-C2α (from UniProt O00443 1-1686)
2 | binds | – | PI3K-C2α, overexpressed (from UniProt O00443 1-1686)
3 | binds | binds | RAB11A (from UniProt P62491 1-216)
4 | binds | binds | integrin β1 (from UniProt P05556 21-798) (receptor)

Source: publication PMC9592618
